Results deposited as PubChem BioAssay AID1259424 (University of Nebraska Medical Center, 2018).
In all, the deposit lists about 14,000 reagents; shown is a random part of them. 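Higher correlation or smaller distance means closer resemblance to KSR1 loss; control wells, including KSR1 knockdowns, recur on many plates.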 A reagent listed more than once was tested more than once; the source does not tell the runs apart. No sequences are given here. Not stated in the record: the time to read-out.

Purpose: 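Find knockdowns that reproduce the expression shifts seen after KSR1 loss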 (primary screen)
Cells: human HCT116 colon cancer cells
Reagents: siRNA pool against human genes, 50 nM
Detection: 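Log2 levels of six mRNAs (branched-DNA multiplex), adjusted by two reference genes and the non-targeting median, then scored against the average KSR1 knockdown pattern as Pearson r and euclidean distance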
Reading the numbers: mean correlation with KSR1 profile and KSR1 correlation: higher = expression change more like KSR1 knockdown; mean distance from KSR1 profile: higher = expression change less like KSR1 knockdown

| gene | mean correlation with KSR1 profile | mean distance from KSR1 profile | KSR1 correlation, replicate 1 | KSR1 correlation, replicate 2 | KSR1 correlation, replicate 3 |
| --- | --- | --- | --- | --- | --- |
| CNOT3 (GeneID 4849) | 0.161 | 3.22 | 0.209 | 0.415 | 0.173 |
| TBC1D8B (GeneID 54885) | -0.491 | 2.88 | -0.416 | -0.593 | -0.52 |
| COQ2 (GeneID 27235) | -0.388 | 1.64 | -0.342 | -0.257 | -0.447 |
| IL12RB1 (GeneID 3594) | 0.24 | 1.98 | -0.0082 | 0.39 | 0.283 |
| GJB1 (GeneID 2705) | -0.0312 | 1.43 | 0.192 | -0.116 | -0.441 |
| KMT2D (GeneID 8085) | -0.106 | 1.54 | -0.152 | -0.101 | -0.127 |
| FKBP9 (GeneID 11328) | -0.664 | 1.96 | -0.658 | -0.664 | -0.539 |
| PITPNC1 (GeneID 26207) | -0.737 | 1.76 | -0.475 | -0.755 | -0.621 |
| CNNM2 (GeneID 54805) | -0.029 | 1.54 | 0.0504 | -0.249 | -0.00306 |
| HAUS4 (GeneID 54930) | -0.423 | 2.47 | -0.248 | -0.556 | -0.655 |
| ZBED1 (GeneID 9189) | 0.0856 | 1.61 | 0.236 | 0.269 | 0.0526 |
| CPQ (GeneID 10404) | -0.424 | 3.23 | -0.315 | -0.39 | -0.484 |
| SLC1A2 (GeneID 6506) | 0.186 | 0.936 | -0.136 | 0.26 | 0.444 |
| ALYREF (GeneID 10189) | -0.566 | 1.86 | -0.628 | -0.611 | -0.377 |
| ACAT2 (GeneID 39) | 0.032 | 1.6 | -0.177 | -0.0193 | 0.253 |
| CD300LB (GeneID 124599) | -0.0616 | 2.6 | 0.0888 | -0.356 | -0.148 |
| SRR (GeneID 63826) | -0.27 | 2.46 | -0.306 | -0.0333 | -0.195 |
| CDC42 (GeneID 998) | -0.742 | 2.17 | -0.678 | -0.827 | -0.682 |
| EQTN (GeneID 54586) | -0.417 | 2.29 | -0.308 | -0.31 | -0.46 |
| COQ8A (GeneID 56997) | 0.405 | 2.66 | 0.4 | 0.43 | 0.225 |
| RAX (GeneID 30062) | -0.222 | 2.04 | -0.2 | -0.265 | -0.0474 |
| RAX (GeneID 30062) | -0.137 | 2.12 | -0.438 | -0.231 | -0.24 |
| IFNA5 (GeneID 3442) | 0.124 | 0.926 | -0.267 | 0.398 | 0.127 |
| CKAP5 (GeneID 9793) | -0.707 | 1.93 | -0.881 | -0.283 | -0.696 |
| VIT (GeneID 5212) | -0.529 | 1.58 | -0.194 | -0.141 | -0.572 |
| C1orf159 (GeneID 54991) | -0.49 | 1.98 | -0.269 | -0.37 | -0.555 |
| CDY2A (GeneID 9426) | 0.0689 | 1.8 | 0.222 | 0.253 | 0.0651 |
| TEAD2 (GeneID 8463) | 0.155 | 1.69 | 0.33 | 0.166 | -0.112 |
| GNL3L (GeneID 54552) | -0.587 | 1.67 | -0.332 | -0.655 | -0.759 |
| KCNA4 (GeneID 3739) | -0.572 | 2.26 | -0.553 | -0.633 | -0.437 |
| KDR (GeneID 3791) | 0.267 | 2.28 | 0.235 | 0.366 | 0.0174 |
| NDUFA10 (GeneID 4705) | 0.503 | 1.17 | 0.67 | 0.619 | 0.281 |
| BACE2 (GeneID 25825) | 0.103 | 1.8 | 0.414 | -0.249 | 0.219 |
| LINC00626 (GeneID 79100) | -0.0504 | 3.95 | -0.131 | 0.0918 | -0.395 |
| SERINC1 (GeneID 57515) | -0.762 | 2.57 | -0.745 | -0.733 | -0.625 |
| EPS8L3 (GeneID 79574) | 0.431 | 2.04 | 0.474 | 0.44 | 0.449 |
| GPC6 (GeneID 10082) | -0.165 | 2.16 | -0.0479 | -0.146 | -0.194 |
| CDKL1 (GeneID 8814) | 0.296 | 2.72 | 0.224 | 0.106 | 0.288 |
| ATN1 (GeneID 1822) | 0.446 | 1.56 | 0.392 | 0.43 | 0.578 |
| ZNF318 (GeneID 24149) | 0.278 | 2.33 | 0.483 | 0.0447 | 0.11 |
| CHAF1B (GeneID 8208) | -0.375 | 2.75 | -0.551 | -0.0116 | -0.516 |
| PANX1 (GeneID 24145) | -0.475 | 2.97 | -0.47 | -0.638 | -0.577 |
| TCEAL9 (GeneID 51186) | -0.505 | 2.65 | -0.303 | -0.148 | -0.455 |
| MMP20 (GeneID 9313) | -0.273 | 1.19 | -0.0217 | -0.51 | -0.328 |
| ADGRB3 (GeneID 577) | 0.248 | 1.75 | 0.271 | 0.143 | 0.315 |
| PDCD5 (GeneID 9141) | -0.118 | 3.33 | -0.0733 | -0.179 | -0.0387 |
| BCL6B (GeneID 255877) | 0.0253 | 2.46 | 0.259 | 0.061 | -0.123 |
| PITX1 (GeneID 5307) | 0.416 | 1.27 | 0.778 | 0.664 | 0.285 |
| LRP5 (GeneID 4041) | -0.188 | 1.68 | -0.23 | -0.0669 | -0.383 |
| SHOC2 (GeneID 8036) | 0.134 | 0.761 | -0.0674 | 0.144 | 0.104 |
| DNM1 (GeneID 1759) | 0.368 | 2.86 | 0.0808 | 0.528 | 0.113 |
| RRM1 (GeneID 6240) | 0.347 | 3.1 | 0.451 | 0.263 | 0.306 |
| TSPO (GeneID 706) | 0.535 | 2.14 | 0.532 | 0.571 | 0.417 |
| PGBD3 (GeneID 267004) | -0.586 | 3.16 | -0.654 | -0.695 | -0.584 |
| SERPINB6 (GeneID 5269) | -0.233 | 2.71 | -0.259 | -0.042 | -0.163 |
| PRM1 (GeneID 5619) | 0.233 | 2.21 | 0.28 | 0.435 | -0.00683 |
| NFYA (GeneID 4800) | 0.767 | 1.77 | 0.834 | 0.831 | 0.651 |
| MAPK8IP3 (GeneID 23162) | 0.538 | 2.33 | 0.804 | 0.588 | 0.184 |
| G3BP1 (GeneID 10146) | 0.315 | 1.19 | 0.0742 | 0.342 | 0.332 |
| TNXB (GeneID 7148) | 0.437 | 2.97 | 0.461 | 0.348 | 0.493 |
| NHSL3 (GeneID 57648) | -0.079 | 2.4 | -0.117 | -0.108 | -0.101 |
| NUMBL (GeneID 9253) | -0.583 | 2.74 | -0.708 | -0.284 | -0.561 |
| NEUROD4 (GeneID 58158) | 0.058 | 1.43 | 0.0959 | 0.192 | -0.16 |

A portion from the list above, as a working copy:
| gene | mean correlation with KSR1 profile | mean distance from KSR1 profile | KSR1 correlation, replicate 1 | KSR1 correlation, replicate 2 | KSR1 correlation, replicate 3 |
| --- | --- | --- | --- | --- | --- |
| KDR (GeneID 3791) | 0.267 | 2.28 | 0.235 | 0.366 | 0.0174 |
| NDUFA10 (GeneID 4705) | 0.503 | 1.17 | 0.67 | 0.619 | 0.281 |
| BACE2 (GeneID 25825) | 0.103 | 1.8 | 0.414 | -0.249 | 0.219 |
| LINC00626 (GeneID 79100) | -0.0504 | 3.95 | -0.131 | 0.0918 | -0.395 |
| SERINC1 (GeneID 57515) | -0.762 | 2.57 | -0.745 | -0.733 | -0.625 |
| EPS8L3 (GeneID 79574) | 0.431 | 2.04 | 0.474 | 0.44 | 0.449 |
| GPC6 (GeneID 10082) | -0.165 | 2.16 | -0.0479 | -0.146 | -0.194 |
| CDKL1 (GeneID 8814) | 0.296 | 2.72 | 0.224 | 0.106 | 0.288 |
| ATN1 (GeneID 1822) | 0.446 | 1.56 | 0.392 | 0.43 | 0.578 |
| ZNF318 (GeneID 24149) | 0.278 | 2.33 | 0.483 | 0.0447 | 0.11 |
